# Experimental data published in PubChem BioAssay AID540275 (National Center for Advancing Translational Sciences (NCATS), 2011).
# Sequences of proteins named here, by UniProt entry; tags and fusion partners are left off.
# UniProt Q8NER1, whole entry, looked up: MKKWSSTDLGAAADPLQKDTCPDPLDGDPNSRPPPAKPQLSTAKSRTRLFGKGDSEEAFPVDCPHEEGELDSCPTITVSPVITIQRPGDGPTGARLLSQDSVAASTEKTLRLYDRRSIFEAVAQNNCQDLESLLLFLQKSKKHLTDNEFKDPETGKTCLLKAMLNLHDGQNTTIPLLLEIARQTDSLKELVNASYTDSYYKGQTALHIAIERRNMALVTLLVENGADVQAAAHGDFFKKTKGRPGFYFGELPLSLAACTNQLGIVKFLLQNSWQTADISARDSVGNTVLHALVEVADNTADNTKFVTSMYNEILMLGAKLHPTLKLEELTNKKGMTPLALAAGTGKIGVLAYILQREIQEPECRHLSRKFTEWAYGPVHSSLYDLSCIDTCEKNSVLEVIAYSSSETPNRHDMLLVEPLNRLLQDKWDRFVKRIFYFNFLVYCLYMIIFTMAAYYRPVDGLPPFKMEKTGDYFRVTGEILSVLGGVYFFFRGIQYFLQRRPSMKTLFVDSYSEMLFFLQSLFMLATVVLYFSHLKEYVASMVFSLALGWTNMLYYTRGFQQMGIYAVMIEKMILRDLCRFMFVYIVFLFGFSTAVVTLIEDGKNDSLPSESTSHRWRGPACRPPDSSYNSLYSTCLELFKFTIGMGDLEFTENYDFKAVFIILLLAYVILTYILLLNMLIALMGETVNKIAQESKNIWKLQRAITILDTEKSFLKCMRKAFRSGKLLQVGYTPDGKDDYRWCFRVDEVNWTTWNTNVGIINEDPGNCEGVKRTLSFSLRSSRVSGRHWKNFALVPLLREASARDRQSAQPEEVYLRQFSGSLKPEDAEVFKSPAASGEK
# Screen size: about 320,000 compounds; about 620 (0.19%) were called active. This list was built around the results that the source calls inconclusive (neither active nor inactive); the mix of calls is not that of the screen. Rule as the data show it: active = activation above about 80%; inconclusive = between about 30% and that limit; inactive = weaker than that.
# Molecular target: Transient receptor potential cation channel subfamily V member 1 (Homo sapiens) (UniProt Q8NER1)
# Test: HTS Assay for Compounds that Act as Agonists of the Vanilloid Receptor 1; also: 0% is about no effect
# Details: TRPV1-expressing cells, Fluo-8 calcium influx, agonist mode; at 8.33 µM, stronger effect = higher value
# Procedure, shortened: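 Cells expressing TRPV1 were dye-loaded with Fluo-8 and read kinetically: 10 s baseline, 3 min after compound (agonist portion), then 2 min after EC20 capsaicin (allosteric enhancer portion). Calcium-bound dye fluorescence at 480/520 nm.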
row,Compound,activation
1,O=C(NC(=S)Nc1ccc(Cc2ccncc2)cc1)c1ccc(F)cc1,inactive: 11.2%
2,Cc1ccc(S(=O)(=O)N(CC(=O)NCCSc2ccccn2)c2cc(C)cc(C)c2)cc1,inconclusive: 33.5%
3,CC1(C)Cc2cccc(OCC(=O)NCc3ccccc3)c2O1,inconclusive: 34.5%
4,CC(C)COc1ccc(CSCCNC(=S)Nc2ccccc2)cc1,inconclusive: 63.5%
5,Cc1nn(C)c(C(=O)Nc2ccc(Cn3cccn3)cc2)c1[N+](=O)[O-],inactive: 11.1%
6,Cc1cc(OCC(=O)C(C)(C)C)c2c(-c3ccccc3)cc(=O)oc2c1,inconclusive: 45.7%
7,CCN1CCN(S(=O)(=O)c2ccc(Cl)c(C(=O)Nc3ccccc3N3CCCCC3)c2)CC1,inconclusive: 40.2%
8,CC(CC(=O)N1CCN(c2cccc(Cl)c2)CC1)S(=O)(=O)c1ccc2c(c1)NC(=O)CO2 (stereo not given),inactive: 8.7%
9,CCCCNC(=S)N(CCN(CC)CC)Cc1cc2cc3c(cc2[nH]c1=O)OCCO3,inconclusive: 65.1%
10,Cc1ccc(C(=O)N/C(=C\c2ccc(F)cc2)C(=O)NCc2ccncc2)cc1,inconclusive: 31%
11,O=C(NCC(O)c1ccccc1)c1ccc(Cl)c(S(=O)(=O)N2CCCCC2)c1 (stereo not given),inconclusive: 56.9%
12,CC(C)(C)NC(=O)COc1ccc(-c2ccccc2)cc1,inconclusive: 43.4%
13,CC(C)(C)c1ccc(/C=C/C(=O)Nc2cccnc2)cc1,active: 101%
14,COc1cccc(C2/C(=C(\O)c3ccc4c(c3)OCCO4)C(=O)C(=O)N2CCCN2CCOCC2)c1OC (stereo not given),inactive: 2.59%
15,CCNC(=O)COC(=O)c1cc(-c2ccc(OC)cc2)nc2ccccc12,inconclusive: 39.1%
16,O=C(O)/C=C\C(=O)Nc1ccccc1C(=O)N1CCN(c2ccc(Cl)cc2)CC1,inactive: 7.15%
17,Cc1cnc(C(=O)Nc2ccc(F)cc2)cn1,inconclusive: 38.1%
18,CC1CCCN(c2ccc(C(=O)Nc3ccc4c(c3)OCO4)cc2[N+](=O)[O-])C1 (stereo not given),inconclusive: 59.6%
19,Cc1cccc(CSCCNC(=O)CSCc2ccc([N+](=O)[O-])cc2)c1,inconclusive: 33.3%
20,COc1ccc(Cl)cc1NC(=O)CN(C)C(=O)c1ccc(C)s1,inactive: 11%
21,Cc1ccc(NC(=O)c2nc[nH]c2C(=O)N[C@@H](C)C(=O)OC(C)(C)C)cc1,inconclusive: 30.5%
22,O=C(NNC(=S)Nc1ccc(Cl)c(Cl)c1)c1cccc([N+](=O)[O-])c1,inconclusive: 30.4%
23,CCOC(=O)c1sc(NC(=O)Nc2ccccc2)cc1C,inconclusive: 68.2%

# Taken from above.
# activation with Cc1ccc(C(=O)N/C(=C\c2ccc(F)cc2)C(=O)NCc2ccncc2)cc1 reads inconclusive: 31%
# activation with O=C(NNC(=S)Nc1ccc(Cl)c(Cl)c1)c1cccc([N+](=O)[O-])c1 reads inconclusive: 30.4%

# Continuation:

row,Compound,activation
1,CC1CCC2(CC1)NC(=O)N(CC(=O)Nc1nc(-c3ccc(F)cc3)cs1)C2=O (stereo not given),inactive: 2.84%
2,CC(C)c1c(C(=O)N/N=C/c2ccco2)nnn1-c1nonc1N,inconclusive: 42.1%
3,O=C(N/N=C/c1sc(N2CCCCC2)nc1-c1cccs1)c1cccnc1,inconclusive: 46.3%
4,S=C(NCc1ccccc1)Nc1ccncc1,inconclusive: 61.7%
5,COc1cccc(CN(C)S(=O)(=O)c2ccc3c(c2)OCCO3)c1,inconclusive: 37.3%
6,Cc1ccccc1CCNC(=O)c1ccc(Cl)c(S(=O)(=O)N2CC(C)OC(C)C2)c1 (stereo not given),inconclusive: 31%
7,O=C(Nc1cccc(Br)c1)c1ccc(Cl)c(S(=O)(=O)N2CCOCC2)c1,inactive: -0.253%
8,CCn1ncc(/C=C/C(=O)c2ccccc2)c1C,inconclusive: 38.2%
9,N#C/C(=C\c1ccc(Sc2ccccc2)o1)c1nc2ccccc2[nH]1,inconclusive: 70.7%
10,COc1ccc(C(=O)N2CCN(c3cccc(Cl)c3)CC2)cc1,inconclusive: 37.3%
11,COc1ccc(NC(=O)/C=C/c2ccccc2)cn1,inconclusive: 78.2%
12,O=C(NC1CCCCC1)c1cc2ccccc2cc1O,inconclusive: 33.3%
13,Cc1ccc(/C=C/C(=O)N2CCc3ccccc3C2)cc1,active: 80.4%
14,O=c1ccc(-c2ccccc2)nn1Cc1ccc(F)cc1,inconclusive: 66.3%
15,CCCCC(NC(=O)Cc1c(C)c2cc3c4c(oc3c(C)c2oc1=O)CCCC4)C(=O)O (stereo not given),inconclusive: 34.7%
16,Cc1ccc(C(=O)OCc2cn3ccccc3n2)cc1,inconclusive: 42.7%
17,O=C(Cn1c(=O)sc2ccccc21)Nc1ccc(S(=O)(=O)N2CCCCC2)cc1,inconclusive: 37.9%
18,CCOC(=O)c1sc(N2N=C(C)C(N=Nc3cccc(C)c3)C2=O)nc1C (stereo not given),inactive: 2.51%
19,COc1cc(NC(=O)Nc2ccccc2)c(OC)cc1NC(=O)CN1CCCCC1,inconclusive: 46.1%
20,CCOC(=O)C1(P(=O)(c2ccc(Cl)cc2)c2ccc(Cl)cc2)CCC1,inconclusive: 43.8%
21,CCN(CC)c1ccc(/C=C/C(=O)c2ccc(Br)cc2)cc1,active: 123%
22,COc1ccc(-n2ncc3c2CC(C)(C)CC3NC(=O)c2ccnn2C)cc1 (stereo not given),inconclusive: 32.2%
